Experimental data from PMC12736535, “Generation and Characterization of Novel Contilisant+Tubastatin a Multitarget Small Molecules Against Glioblastoma” (Pharmaceutics, 2025).

Test system: GNS166 cells
Assay: Proteomics (label-free nLC MS/MS)
Assay type: cell-based, human
Details: 5 µM, GNS166, vs controls

| SMILES | differentially upregulated proteins (proteomics) | downregulated proteins (proteomics) |
| --- | --- | --- |
| CCCNNC(=O)c1ccc(S(=O)(=O)n2ccc3cc(OCCCN4CCCCC4)ccc32)cc1 [FRB44] | 1292 | 1235 |
| C#CCN1CCN(CCCOc2ccc3c(ccn3S(=O)(=O)c3ccc(C(=O)NNCCC)cc3)c2)CC1 [FRB56] | 949 | 1132 |
